The filed quantity is “Percent Effect” (%). How 0% and 100% were set is not recorded. Most values in the screen are low, and negative values occur. This is an unselected part of the compounds tested. Two or more numbers in one place are separate tests of the same structure; such repeats can differ widely.

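Viability assay of Plasmodium falciparum sporozoites; the read-out is not stated. The concentration is filed as 10 mM, unlikely as a test dose, so the dose is not known. Higher reads as lower viability (inferred: compounds with an IC50 in retests scored well above the rest). Strong results were mostly tested again. Of about 34,000 compounds tested this way, about 280 (0.84%) reached 50% or more in at least one test.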

{"structure": "CC(C)N1CCN(c2ccc3ccc(C(=O)NC4CCCC4)cn23)CC1.O=C(O)C(F)(F)F", "percent effect": 2.715}
{"structure": "Cc1nc2n(n1)CC(NCc1nc(-c3cccnc3)no1)CC2", "stereo": "stereo not given", "percent effect": 5.797}
{"structure": "[H][C@@]12COC[C@]1(C(=O)N(C)Cc1ccccn1)CN(Cc1cnn(C)c1)C2", "percent effect": -9.199}
{"structure": "O=C(O)C(F)(F)F.O=C(O)C(F)(F)F.[H][C@@]12CCN(c3nncs3)C[C@@]1([H])O[C@@H](C(=O)Nc1cccnc1)C2", "percent effect": 2.931}
{"structure": "O=C1NC2(CCc3ccccc31)CCN(Cc1cccnc1)C2", "stereo": "stereo not given", "percent effect": -12.38}
{"structure": "Cn1nc(COc2cccnc2)c2c1CCN(c1cnccn1)C2.O=CO.O=CO", "percent effect": -10.06}
{"structure": "COc1cccc(CN2CCCC3(CCN(C(=O)c4ccco4)C3)C2)c1", "stereo": "stereo not given", "percent effect": 2.966}
{"structure": "Cc1cc2n(n1)[C@@H](C(F)(F)F)C[C@@H](C1CCN(C(=O)C3CC3)CC1)N2", "percent effect": 19.69}
{"structure": "CCN(c1ccc(C(=O)NCCCN2CCOCC2)cc1)S(=O)(=O)CC", "percent effect": -4.622}
{"structure": "O=C(O)C(F)(F)F.O=C(O)C(F)(F)F.[H][C@@]12CCCO[C@]1([H])[C@H](N(C)Cc1cncnc1)CN(Cc1ccco1)C2", "percent effect": -5.109}
{"structure": "Cc1nn(C)c(C)c1C1CCCN1Cc1cccc(OCC(N)=O)c1", "stereo": "stereo not given", "percent effect": -3.122}
{"structure": "CNC(=O)CCNC(=O)CCc1c(C)nc2cc(O)nn2c1C", "percent effect": 8.263}
{"structure": "O=C(O)C(F)(F)F.O=C(O)C(F)(F)F.c1ccc(OC2COC3(CCN(CC4CC4)CC3)C2)nc1", "stereo": "stereo not given", "percent effect": 13.11}
{"structure": "Cc1noc(Cl)c1CCC(=O)N1CCC(Nc2cccnn2)CC1", "percent effect": -6.388}
{"structure": "CCCOCC(=O)NS(=O)(=O)c1ccc2c(c1)OCCO2", "percent effect": -9.425}
{"structure": "[H][C@@]12C[C@@H](OCc3ccccn3)CN1CCN(C(=O)c1ccnnc1)C2", "percent effect": -2.835}
{"structure": "O=C(NCCc1cc(N2CCOCC2)nc(NC2CC2)n1)C1CCCO1", "stereo": "stereo not given", "percent effect": 11.42}
{"structure": "c1cc(-c2cnc(NC3CC3)nc2[C@@H]2CCCO2)ccn1", "percent effect": 10.93}
{"structure": "NC(=O)NCC1CCCCN1C(=O)c1ccc(Br)s1", "stereo": "stereo not given", "percent effect": -11.53}
{"structure": "COc1cccc(CN2CCCC3(CCN(C(=O)N4CCCC4)C3)C2)c1.O=C(O)C(F)(F)F", "stereo": "stereo not given", "percent effect": 1.986}
{"structure": "N#Cc1ccc(N2CCCC3(CCN(c4cncnc4)C3=O)C2)nc1.O=C(O)C(F)(F)F", "stereo": "stereo not given", "percent effect": 11.14}
{"structure": "CCC1c2ccsc2CCN1C(=O)NCc1cc(C)on1", "stereo": "stereo not given", "percent effect": 2.182}
{"structure": "Cc1[nH]/c(=N\\C(=O)c2csc(NC3CC3)n2)sc1C", "percent effect": "50.71 & 20.82 & 44.18"}
{"structure": "CC(C)CC(=O)N1CC(=O)c2sc(NC3CCCCC3)nc2C1", "percent effect": 10.25}
{"structure": "CC(O)CN1CCN(C(=O)c2ccc(Cn3cccn3)cc2)CC1", "stereo": "stereo not given", "percent effect": 7.04}
{"structure": "Cc1ncc(CNC2CC(=O)N(CCc3ccc(F)cc3)C2)n1C", "stereo": "stereo not given", "percent effect": -8.769}
{"structure": "CC(NC(=O)Cn1ccc(=O)n(C)c1=O)c1cc(F)ccc1F", "stereo": "stereo not given", "percent effect": -2.296}
{"structure": "Cc1cc(C)nc(N2CCC(c3noc(C)n3)CC2)n1", "percent effect": 7.074}
{"structure": "CC(C)C(=O)N1CCCC([C@@H]2C[C@H](C(F)F)n3ncnc3N2)C1", "stereo": "stereo not given in full", "percent effect": -4.532}
{"structure": "Cc1ncccc1O[C@H]1CCN(C(=O)c2cccs2)CC[C@@H]1O", "percent effect": 3.436}
{"structure": "CSc1nccc(N2CCC3(CCCN(Cc4cccc(C)c4)C3)C2)n1", "stereo": "stereo not given", "percent effect": 9.948}
{"structure": "CNC(=O)C1CN(Cc2cc(C)on2)CCN(C(C)=O)C1", "stereo": "stereo not given", "percent effect": 6.716}
{"structure": "Cc1nn(C)c2c(N3CCN(C(=O)c4ccccc4)CC3)ncnc12", "percent effect": 9.43}
{"structure": "CCc1nccn1C1CCCN(C(=O)c2cnn3cccnc23)C1", "stereo": "stereo not given", "percent effect": 15.78}
{"structure": "Cc1cccc(N2CC3(CCN(S(=O)(=O)c4cccs4)C3)CC2=O)c1", "stereo": "stereo not given", "percent effect": 0.08757}
{"structure": "c1cnn(CC2CCCCN2c2ncnc3ccsc23)c1", "stereo": "stereo not given", "percent effect": 0.8043}
{"structure": "CC(NC(=O)NCCCc1n[nH]c(N)c1C#N)c1ccc(Cl)cc1", "stereo": "stereo not given", "percent effect": 3.122}
{"structure": "CC(=O)N(C)C1CCN(C(=O)c2cccc3c2ccn3C)CC1", "percent effect": "-20.44 & 13.88 & -18.43"}
{"structure": "CC(C)Nc1ncnc2c1CCN(C(=O)Cc1ccccn1)CC2.O=C(O)C(F)(F)F", "percent effect": 5.044}
{"structure": "COc1ncccc1CNC(=O)c1cc(Cl)ccn1", "percent effect": 4.852}
{"structure": "Cc1nnc2n1CCN(C(=O)c1cc(Br)c(Cl)[nH]1)C2", "percent effect": 12.21}
{"structure": "CC1CN(C(=O)CN(Cc2ccccc2Br)C2CC2)CCO1", "stereo": "stereo not given", "percent effect": 0.2312}
{"structure": "CCCC(=O)NCCc1nc2cc(-c3ccc(OC)cc3)ncn2n1", "percent effect": 10.77}
{"structure": "CO[C@@H]1CCN(Cc2ccoc2)C[C@@H]1Cc1ccccc1.O=C(O)C(F)(F)F", "percent effect": 0.9418}
{"structure": "CN(C)CC(=O)N1CCN(C(=O)c2cccc3[nH]ncc23)CC1", "percent effect": -2.423}
{"structure": "CCOc1cc(C)nc(N2CCN(C(=O)c3cc[nH]n3)CC2)n1", "percent effect": 8.227}
{"structure": "CC1(c2[nH]ncc2C(N)=O)CCN(S(=O)(=O)c2ccccc2)CC1", "percent effect": -1.683}
{"structure": "O=C(O)C(F)(F)F.[H][C@@]12CCN(c3cccc(F)c3)C[C@@]1([H])O[C@@H](C(=O)NCc1ccco1)C2", "percent effect": -5.228}
{"structure": "O=C(COc1ccc(Cl)cc1)N1CCN(c2cnccn2)CC1", "percent effect": -6.482}
{"structure": "NC(=O)CN1CCCN(C(=O)CCOc2ccccc2Cl)CC1", "percent effect": 4.568}
{"structure": "COc1ccc2cc(C3CN(C(=O)CN4CCCC4)CCO3)ccc2c1", "stereo": "stereo not given", "percent effect": "56.27 & 53.19 & 50.16"}
{"structure": "Cc1ccc(NC2CCN(C(=O)c3ccoc3C)CC2)nn1", "percent effect": 11.49}
{"structure": "CC(Cn1cccn1)NC(=O)NCc1ccc(S(N)(=O)=O)cc1", "stereo": "stereo not given", "percent effect": -4.855}
{"structure": "CC(C)CCN1Cc2c(C(=O)O)ncn2-c2ccccc2S1(=O)=O", "percent effect": 5.943}
{"structure": "Cl.[H][C@@]12CCN(C3CCCC3)C[C@]1([H])[C@@H](c1ccsc1)CN2C(=O)C(C)(C)C", "percent effect": 5.62}
{"structure": "CN(C)Cc1cn2c(n1)CN(C1CCOC1)CC2", "stereo": "stereo not given", "percent effect": 14.65}

Repeated from the top, 4 entries:

{"structure": "CC(C)N1CCN(c2ccc3ccc(C(=O)NC4CCCC4)cn23)CC1.O=C(O)C(F)(F)F", "percent effect": 2.715}
{"structure": "Cc1nc2n(n1)CC(NCc1nc(-c3cccnc3)no1)CC2", "stereo": "stereo not given", "percent effect": 5.797}
{"structure": "[H][C@@]12COC[C@]1(C(=O)N(C)Cc1ccccn1)CN(Cc1cnn(C)c1)C2", "percent effect": -9.199}
{"structure": "O=C(O)C(F)(F)F.O=C(O)C(F)(F)F.[H][C@@]12CCN(c3nncs3)C[C@@]1([H])O[C@@H](C(=O)Nc1cccnc1)C2", "percent effect": 2.931}

Measurements from “University of Dundee, Small-Polar-MMV Screening Library” (2021), ChEMBL document CHEMBL3988442.